{
  "source": "patent US6204384A",
  "about": "“Substituted 3-amino-2-hydroxyphenylacetamide derivatives as enzyme inhibitors (II)” (Corvas International, Inc., priority 1997, dated 2001)",
  "origin": "cited, not measured here",
  "system": "thrombin",
  "details": "literature; cited from earlier work",
  "note": "At least one structure is not confirmed: it was looked up by name or label, or the drawing left a doubt.",
  "data": [
    {"smiles": "CCOC(=O)c1ccc(OC(=O)CCCCCNC(=N)N)cc1", "note": "[FOY, [ethyl p-(6-guanidinohexanoyloxy) benzoate] methane sulfonate]", "values": [
      {"measurement": "inhibition of thrombin, in words", "value": "non-selective competitive inhibitor of thrombin"}
    ]}
  ]
}
